Substitutions are numbered along the chain they refer to. Names may count otherwise. These are yes or no findings as the source states them, for the method shown. In cells and extracts the contact can be indirect. Some entries that bind do so weakly or less than the wild type. Where a sequence is shown, tags or fusion partners need not be part of it. One block for each binder: values may come before it.
Legend:
[1] = molecular target: T1, full-length SIRT2 fused to split GFP fragments (two co-expressed constructs) (human), Q8IXJ6; assay: split reporter; split GFP; two full-length SIRT2 fusions cotransfected in A549 cells, fixed 48 h after transfection, GFP/DAPI fluorescence; also 6 h with 200 μM ascorbyl palmitate or 0.2% DMSO; conditions: remark: other sources report otherwise
T1 chain: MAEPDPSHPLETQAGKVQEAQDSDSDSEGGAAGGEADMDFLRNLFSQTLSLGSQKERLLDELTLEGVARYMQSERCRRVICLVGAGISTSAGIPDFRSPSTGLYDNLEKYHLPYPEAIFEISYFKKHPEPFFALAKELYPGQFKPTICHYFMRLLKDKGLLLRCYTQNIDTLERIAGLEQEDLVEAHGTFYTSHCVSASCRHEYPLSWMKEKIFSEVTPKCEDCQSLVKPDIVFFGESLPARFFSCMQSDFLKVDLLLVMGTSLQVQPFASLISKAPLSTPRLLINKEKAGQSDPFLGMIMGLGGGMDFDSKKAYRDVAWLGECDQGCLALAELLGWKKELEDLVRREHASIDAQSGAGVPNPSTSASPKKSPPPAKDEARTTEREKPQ

[2] = molecular target: full-length SIRT2(Q142A/E340A) fused to split GFP fragments (two co-expressed constructs) (human) (UniProt Q8IXJ6); assay: as above

binding [1]: binds
B1: full-length SIRT2 fused to split GFP fragments (two co-expressed constructs), Q8IXJ6-1 1-389 (enzyme)
chain: T1 chain

binding [2]: no binding
B2: full-length SIRT2(Q142A/E340A) fused to split GFP fragments (two co-expressed constructs) (enzyme, UniProt Q8IXJ6-1 1-389)
chain: T1 chain with Q142A, E340A

— article PMC10702427, “Effects of Dimerization on the Deacylase Activities of Human SIRT2” (Biochemistry, 2023)
